Measured values taken from publication doi:10.1101/2024.12.14.628500.
No constants are given. Whether binding was seen depends on the method and setting. In cells and extracts the contact can be indirect. Some binding calls cover weakened binding; strength is not graded here. Sequences can lack the tags named with a protein.

Molecular target: T1, Atp6-HA-6xHis (ATP synthase subunit Atp6, C-terminally tagged by HA-6xHis) (S. cerevisiae) (UniProt P00854)
T1 sequence: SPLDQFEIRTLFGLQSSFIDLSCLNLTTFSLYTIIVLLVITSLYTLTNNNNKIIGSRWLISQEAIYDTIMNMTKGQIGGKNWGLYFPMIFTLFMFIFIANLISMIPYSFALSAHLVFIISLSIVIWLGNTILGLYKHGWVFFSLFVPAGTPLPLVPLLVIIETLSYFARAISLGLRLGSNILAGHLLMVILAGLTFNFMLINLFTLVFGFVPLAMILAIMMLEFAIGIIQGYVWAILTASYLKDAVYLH
Assay: pull-down

B1: Atp3 (ATP synthase subunit γ) (protein, UniProt P38077 34-311)
chain: ATLKEVEMRLKSIKNIEKITKTMKIVASTRLSKAEKAKISAKKMDEAEQLFYKNAETKNLDVEATETGAPKELIVAITSDKGLCGSIHSQLAKAVRRHLNDQPNADIVTIGDKIKMQLLRTHPNNIKLSINGIGKDAPTFQESALIADKLLSVMKAGTYPKISIFYNDPVSSLSFEPSEKPIFNAKTIEQSPSFGKFEIDTDANVPRDLFEYTLANQMLTAMAQGYAAEISARRNAMDNASKNAGDMINRYSILYNRTRQAVITNELVDIITGASSLG
- binding: binds
